Test results reported in PubChem BioAssay AID2685 (National Center for Advancing Translational Sciences (NCATS), 2010).
The list shows a part of the results. Further columns of the screen follow, without active or inactive calls. Compounds called inactive in the main read-out are mostly missing here. Words in brackets tell the shape of the fitted curve; partial curves, single points and poor fits give uncertain potencies.

Experiment: qHTS Assay for Lipid Storage Modulators in Drosophila S3 Cells;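 for cell number change: cells counted by Cell Tracker Red CMTPX staining in the red channel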
Conditions: BODIPY lipid droplet fluorescence, 18-24 h; for cell number change: measured here: cell count max response, cells fed with added oleic acid
Excerpt: NIH Molecular Libraries Probe Production Centers Network [MLPCN] NIH Chemical Genomics Center [NCGC] MLPCN Grant: 1 R03 MH085686-01 Assay Submitter (PI): Beller, Mathias; Max-Planck-Institut fur Biophysikalische Chemie NCGC Assay Overview: Storing lipids as a reservoir for energy or the anabolism of elementary metabolites is a common feature of probably all cells and is conserved from bacteria to humans. The universal cellular lipid storage organelle is the so-called lipid storage droplet (LD). Although ubiquitous, LDs share a simple structure composed of a hydrophobic core that harbors the storage lipids, which is shielded by a droplet-specific phospholipid monolayer to which proteins are attached. The current model of LD biogenesis involves an incorporation of the lipid core into the membrane leaflets of the endoplasmic reticulum (ER) followed by a subsequent budding-like maturation of a LD, which ultimately pinches off. Once released, LD volume can increase by localized lipogenesis or fusion of existing droplet. Storage lipids are re-mobilized enzymatically by lipase activity. Lipase regulation in the adipocyte is heavily studied and involves multiple components including catecholamine signaling, the LD-associated proteins Perilipin and comparative gene identification (CGI-58) and at least two lipases named hormone sensitive lipase (HSL) and adipocyte triglyceride lipase (ATGL). LD regulation outside of the adipocyte is poorly understood and only few components are known. However, there is an urgent need to learn more about ectopic fat depots as mislocalized storage of lipids, for example in the liver or muscle, is an eminent health problem associated with insulin resistance or the metabolic syndrome. We developed a laser-scanning cytometer assay to enable 1,536-well screening and combined the results of the small molecules screen with an RNAi database based on lipid storage.
Triacsin C (Sigma-Aldrich T-4540), an inhibitor of long-chain fatty acyl CoA synthetase that blocks synthesis of triglycerides, was used as a positive control for lipid under-storage. A total of 23 nL of compound solution of different concentrations were transferred to the assay plates using a Kalypsys pin tool equipped with a 1,536-pin array containing 10-nL slotted pins (FP1S10, 0.457-mm diameter, 50.8 mm long; V&P Scientific). One microliter of oleic acid (400 uM) was added, and the plate was lidded with stainless steel rubber gasket lined lids containing pinholes. […] Fluorescence was detected by excitation of the fluorophores with a 488-nm laser on an Acumen Explorer (TTP Lab Tech). The total intensity in channel 2 (500-530 nm) reflected lipid droplet accumulation. Cells were detected using channel 3 (575-640 nm) with 5-um width and 100-um depth filters. The ratio of the number of objects in PMT channel 2 over the number of objects in PMT channel 3 was also calculated. Percent activity was computed relative to an internal control (100% inhibited lipid droplet deposition due to the presence of 20 uM Triacsin C), which was added to 32 wells/plate.

[1] = measured here: cell number channel AC50, cells fed with added oleic acid
[2] = measured here: lipid fluorescence (Fed channel) AC50, cells fed with added oleic acid

Structure (SMILES)	cell number change [%]	AC50 [1]	AC50 [2]
CC(=O)N(CN1C(=O)CCC1=O)c1cccc(Cl)c1	-85.6	20.6 µM [falling, partial curve]	1.46 µM [falling, full curve]
CC1Sc2ccc(S(=O)(=O)CCC(=O)NCc3cccs3)cc2NC1=O (stereo not drawn)	-4.72	–	–
N#CC1(NC(=O)COC(=O)c2ccc(Cl)nc2)CCCCC1	-50	3.66 µM [falling, full curve]	29.1 µM [rising, single point]
CCn1cc(CN2CCc3c([nH]c4ccccc34)C2c2cccc(O)c2)c(C)n1 (stereo not drawn)	-3.65	–	4.11 µM [falling, full curve, poor fit]
COc1ccccc1NS(=O)(=O)c1ccc(/C=C/C(=O)O)cc1	-1.76	–	0.082 µM [falling, full curve, poor fit]
C/C(=C\c1ccccc1)C(=O)NCCCn1ccnc1	49.5	0.116 µM [rising, full curve, poor fit]	–
CC1(C)CC(=O)C(N=Nc2cccc([N+](=O)[O-])c2)=C(O)C1	-22.8	–	5.8 µM [falling, full curve, poor fit]
CCC(CC)C(=O)Nc1nnc(SCC(=O)NC2CC2)s1	3.33	–	–
CC(C)NS(=O)(=O)c1ccc(NC(=O)Cc2ccsc2)cc1	4.6	–	–
COC(=O)c1cc(S(=O)(=O)NCc2ccccc2)c[nH]1	18.9	–	3.26 µM [rising, single point]
CCOc1ccccc1-n1c(CN2CCN(C(=O)c3ccco3)CC2)nc2ccccc2c1=O	2.26	–	0.82 µM [rising, partial curve]
c1ccc(Cn2c(-c3ccccc3)c[n+]3c2SCCC3)cc1	12.5	–	–
CC(=O)c1c(C)[nH]c(C(=O)Nc2cc(F)ccc2C)c1C	-4.84	–	–
COc1ccc(CCn2c(=O)[nH]c3cc(C(=O)NCCc4ccccc4)ccc3c2=O)cc1OC	16.3	–	0.461 µM [falling, full curve, poor fit]
COc1cccc(C(=O)Oc2ccc3c(C)cc(=O)oc3c2C(C)=O)c1	2.85	–	–
CCN(C(=O)Cn1cnc2c1c(=O)n(C)c(=O)n2C)C1CCS(=O)(=O)C1 (stereo not drawn)	9.37	–	–
N#CCN(CC#N)C(=O)C1c2ccccc2Oc2ccccc21	1.38	–	–
O=C1CCN(C(=O)Nc2ccccc2Cl)N1	-26.1	–	20.6 µM [falling, single point]
Cc1cccc(CSCc2ccc(C(=O)NCC3CCCO3)o2)c1 (stereo not drawn)	-22.5	–	4.11 µM [rising, single point]
O=C(c1cc(COc2ccc(F)cc2F)on1)N1CCN(C2CCCC2)C(=O)C1	27.2	–	2.91 µM [rising, full curve]
Cc1ccc(C(=O)O)cc1NC(=O)CSc1ncnc2sc3c(c12)CCC3	9.64	–	0.58 µM [falling, full curve]

Structure (SMILES)	cell number change [%]	AC50 [1]	AC50 [2]
CCOC(=O)N1CCN(C(=O)c2ccc3c(=O)n(-c4cc(OC)ccc4OC)c(=S)[nH]c3c2)CC1	3.09	–	2.59 µM [rising, single point]
O=C(NCC1COc2ccccc2O1)c1cn(Cc2ccc(F)cc2)nn1 (stereo not drawn)	35.2	29.1 µM [rising, single point]	29.1 µM [rising, single point]
O=C(CN(c1cccc(C(F)(F)F)c1)S(=O)(=O)c1ccc(Cl)c([N+](=O)[O-])c1)NCc1ccc(F)cc1	16.7	–	32.6 µM [falling, single point]
Cc1ccc(S(=O)(=O)N2CCCCC2)cc1NC(=O)c1ccc2c(=O)n3c(nc2c1)CCCCC3	28.9	–	1.84 µM [rising, partial curve]
COc1ccc(CN2CCNC(=O)C2CC(=O)N(C)CCC2CCOCC2)cc1OC (stereo not drawn)	13	–	–
O=C(Nc1ccccc1N1CCCC1)C1=COCCO1	-0.55	–	–
CCOC(=O)C1CCN(C(=O)CN2C(=O)c3ccccc3S2(=O)=O)CC1	-56.6	25.9 µM [falling, single point]	–
COC(=O)c1cccc(C(=O)Nc2ccc(C)cc2Br)n1	54.3	20.6 µM [rising, single point]	29.1 µM [rising, single point]
Cc1cc(C)c2c(=O)n(CC(=O)N3CCC(Cc4ccccc4)CC3)sc2n1	-21.3	–	11.6 µM [falling, partial curve]
Fc1cccc(NCc2ccoc2)c1	-1.57	–	0.00517 µM [falling, full curve, poor fit]
CCCCOC(=O)C1C2C=C[C@]3(CN(C(C)c4ccc(OC)cc4)C(=O)[C@H]13)O2 (stereo partly drawn)	-56.3	29.1 µM [falling, single point]	3.66 µM [falling, full curve, poor fit]
CCC(C)Sc1nnc(CSc2nc3nc(C)cc(C)n3n2)o1 (stereo not drawn)	-6.84	6.51 µM [rising, single point]	–
Cc1cccc2cc3c(nc12)SC(=NCC1CCCO1)N(Cc1ccco1)C3 (stereo not drawn)	-22.1	–	11.6 µM [falling, partial curve]
Nc1c(S(=O)(=O)c2cccs2)c2nc3ccccc3nc2n1/N=C/c1cccc(O)c1	-75.4	18.4 µM [falling, single point]	29.1 µM [falling, single point]
O=C(NCc1cccnc1)c1cccc(S(=O)(=O)N2CCOCC2)c1	-5.14	–	–
O=C(NCCc1ccccc1)C1CCCN(S(=O)(=O)c2cccc3nonc23)C1 (stereo not drawn)	54.2	29.1 µM [rising, single point]	29.1 µM [rising, single point]
COc1ccc(-c2cc(C(F)(F)F)n3nc(N)nc3n2)cc1	99.9	1.3 µM [rising, full curve]	1.84 µM [rising, partial curve]
COc1ccc(C(=O)c2c3ccc([N+](=O)[O-])cc3[n+]([O-])n2CCCC(N)=O)cc1	-31.9	20.6 µM [falling, single point]	0.0731 µM [rising, full curve, poor fit]
NC(=S)Nn1c(-c2ccccc2)nc2ccccc2c1=O	-58.7	25.9 µM [falling, single point]	23.1 µM [falling, single point]
COc1ccc(N2CCN(C3CCCN(C(=O)c4cccc(C)n4)C3)CC2)cc1 (stereo not drawn)	11.9	4.11 µM [rising, single point]	–
O=C(Nc1ccc2oc(-c3ccccc3)nc2c1)C1CCCO1 (stereo not drawn)	24.6	–	0.651 µM [rising, full curve, poor fit]

Reprinted from above (four entries):
Structure (SMILES)	cell number change [%]	AC50 [1]	AC50 [2]
Fc1cccc(NCc2ccoc2)c1	-1.57	–	0.00517 µM [falling, full curve, poor fit]
CCCCOC(=O)C1C2C=C[C@]3(CN(C(C)c4ccc(OC)cc4)C(=O)[C@H]13)O2 (stereo partly drawn)	-56.3	29.1 µM [falling, single point]	3.66 µM [falling, full curve, poor fit]
CCC(C)Sc1nnc(CSc2nc3nc(C)cc(C)n3n2)o1 (stereo not drawn)	-6.84	6.51 µM [rising, single point]	–
Cc1cccc2cc3c(nc12)SC(=NCC1CCCO1)N(Cc1ccco1)C3 (stereo not drawn)	-22.1	–	11.6 µM [falling, partial curve]

Next part

Structure (SMILES)	cell number change [%]	AC50 [1]	AC50 [2]
O=C(Nc1ccncc1)c1cc(-c2cccc(Br)c2)nc2ccccc12	–	–	18.4 µM [rising, single point]
O=C(NCC1CC1)c1onc(CSc2ccncc2)c1C(=O)NCC1CC1	4.67	–	0.13 µM [rising, full curve, poor fit]
CC1(C2CC2)NC(=O)N(CC(=O)N2CCN(c3ccccc3Cl)CC2)C1=O (stereo not drawn)	-99.2	23.1 µM [falling, single point]	–
COC(=O)C1CCCN1S(=O)(=O)c1ccc([N+](=O)[O-])cc1 (stereo not drawn)	5.57	–	–
NC(=NCc1ccco1)NC(=O)c1ccccc1	–	–	29.1 µM [falling, single point]
Cc1ccccc1N(CC(N)=O)S(C)(=O)=O	-21.3	3.66 µM [falling, full curve, poor fit]	3.66 µM [falling, full curve]
Cc1cc(C(=O)COC(=O)Cc2ccc(Br)cc2)c(C)n1C	-35.9	29.1 µM [falling, single point]	2.91 µM [falling, partial curve]
O=C(NC1CC1)C1CCN(C(=O)c2ccc(Cl)cc2Cl)CC1	21.3	–	6.51 µM [falling, single point]
COc1ccc(OCC(=O)Nc2ccccc2O)cc1	-49.1	3.26 µM [falling, full curve]	18.4 µM [falling, single point]
COc1cc2ncnc(NCCCN3CCOCC3)c2cc1OC	47.8	29.1 µM [rising, single point]	–
O=C(NCC1CCCN(Cc2nccs2)C1)c1cccc2ccccc12 (stereo not drawn)	24.3	–	–
CCOC(=O)c1oc2cc(O)ccc2c(=O)c1-c1ccccc1OC	-11.8	–	0.411 µM [falling, full curve, poor fit]
CCOc1ccc(N(CC(=O)N2CCCC2)S(=O)(=O)c2ccc(Cl)cc2)cc1	21.8	–	0.116 µM [rising, single point]
O=C(CSc1ncn[nH]1)Nc1ccc([N+](=O)[O-])cc1Br	2.12	–	–
O=S(=O)(Nc1nc2ccccc2nc1NCc1ccco1)c1ccc(F)cc1	37	18.4 µM [rising, single point]	–
CCOC(=O)N1CCN(CCC(=O)Nc2cccc(Cl)c2C)CC1	-1.46	–	–
O=C(/C=C/Sc1ncn[nH]1)c1ccc(Cl)cc1	-18.4	–	29.1 µM [falling, single point]
Cc1ccc(C)c(S(=O)(=O)Nc2cc3c4c(c2)CCC(=O)N4CCC3)c1	–	2.31 µM [rising, partial curve, poor fit]	–
Cc1nc2c3ccccc3nc(NNC(=O)CCC(=O)N3CCCC(C)C3)n2n1 (stereo not drawn)	-10.4	–	16.4 µM [rising, partial curve]
COc1cccc(CNC(=O)COC(=O)c2nc(Cl)c(Cl)c(Cl)c2Cl)c1	–	–	7.31 µM [falling, partial curve]
